Measurements reported in PubChem BioAssay AID1259327 (Drosophila RNAi Screening Center, 2017)
Assay: 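Baseline ATP after transmembrane-protein gene knock-down with water vehicle only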. Cells: Drosophila S2R+ cells. Reagent: long dsRNA against Drosophila genes. Time to read-out: 5 days (water added on day 4, read one day later). Treatment: water added as vehicle, no metal, one day before read-out. Read-out: 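Total ATP measured by luciferase light, scaled to plate mean, duplicates averaged, then z-scored across plates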. Direction: ATP z-score: higher = more total ATP than typical wells; ATP luminescence: higher = more total ATP. Active means: 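a hit is any knock-down whose absolute ATP z-score is greater than 1.5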. Meaning of the calls: active = hit: ATP up or down; inactive = no clear ATP change.
In all, the deposit lists about 3,100 reagents; this is a part drawn at random. 378 of all reagents (12%) count as active. 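Hits include both directions; z-score sign shows ATP rise or fall; raw luminescence values are not plate-normalised.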 A number with no mark means an inactive call. Names joined by + are all predicted targets of the reagent. Not given: the amount of reagent.

| gene knocked down | dsRNA | ATP z-score, duplicate mean | ATP luminescence, replicate 1 (RLU) | ATP luminescence, replicate 2 (RLU) |
| --- | --- | --- | --- | --- |
| PIG-N | DRSC06837 | 2.45 (active) | 7.84e5 | 8.99e5 |
| NAAT1 | DRSC18300 | 0.292 | 5.38e5 | 6.55e5 |
| NAAT1 | DRSC25615 | 0.397 | 9.19e5 | 8.26e5 |
| CG4576 | DRSC15604 | -1.01 | 2.70e5 | 6.10e5 |
| CG4576 | DRSC26364 | 0.00672 | 8.86e5 | 8.16e5 |
| CG3792 | DRSC02725 | 0.415 | 7.58e5 | 7.82e5 |
| CG5892 | DRSC15910 | 0.0424 | 2.93e5 | 7.86e5 |
| CG5892 | DRSC24710 | 0.545 | 9.71e5 | 8.64e5 |
| p24-1 | DRSC19827 | 2.33 (active) | 8.50e5 | 8.80e5 |
| p24-1 | DRSC26718 | -0.974 | 1.06e6 | 1.01e6 |
| Dop1R2 | DRSC13958 | -0.485 | 8.58e5 | 8.08e5 |
| Dop1R2 | DRSC28272 | 1.09 | 1.06e6 | 8.54e5 |
| Mrp4 | DRSC14931 | -0.0175 | 2.93e5 | 7.74e5 |
| Mrp4 | DRSC28151 | 0.857 | 8.90e5 | 1.05e6 |
| PGRP-SB2 | DRSC11092 | -0.629 | 6.90e5 | 6.57e5 |
| Nrk | DRSC07480 | 0.837 | 6.87e5 | 7.04e5 |
| Nrk | DRSC36725 | -0.574 | 5.60e5 | 5.02e5 |
| Nrk | DRSC36726 | 0.317 | 6.77e5 | 5.35e5 |
| ItgaPS4 | DRSC06630 | -0.632 | 5.13e5 | 6.12e5 |
| NtR | DRSC04628 | -0.698 | 6.59e5 | 6.45e5 |
| NtR | DRSC27686 | -0.497 | 8.69e5 | 8.83e5 |
| CG14731 | DRSC14952 | -0.028 | 3.09e5 | 7.31e5 |
| CG14731 | DRSC39683 | -0.377 | 3.89e5 | 4.92e5 |
| CG13743 | DRSC22775 | 1.15 | 7.71e5 | 5.81e5 |
| CG13810 | DRSC22838 | 1.35 | 6.15e5 | 7.73e5 |
| CG13810 | DRSC27859 | 1.1 | 8.91e5 | 9.23e5 |
| CG16825 | DRSC02526 | -0.474 | 6.38e5 | 7.12e5 |
| CG16825 | DRSC39689 | -0.0789 | 4.44e5 | 4.76e5 |
| CG14070 | DRSC02373 | -0.927 | 6.04e5 | 6.51e5 |
| FMRFaR | DRSC08555 | -0.467 | 5.80e5 | 5.74e5 |
| mew | DRSC18971 | 1.31 | 7.65e5 | 7.12e5 |
| mew | DRSC20352 | -1.85 (active) | 5.00e5 | 6.73e5 |
| 140up | DRSC12634 | -0.561 | 6.71e5 | 6.25e5 |
| 140up | DRSC28711 | -0.136 | 8.43e5 | 7.73e5 |
| asRNA:CR30267 + CG42260 | DRSC29385 | 0.0257 | 8.99e5 | 7.59e5 |
| Ir21a + asRNA:CR43609 | DRSC00528 | 0.352 | 8.03e5 | 6.83e5 |
| bib | DRSC03496 | -1.43 | 3.51e5 | 4.08e5 |
| Grd | DRSC11178 | -0.897 | 7.72e5 | 7.84e5 |
| Grd | DRSC28513 | 0.147 | 9.01e5 | 7.86e5 |
| Tsp42Eg | DRSC06112 | 1.37 | 7.25e5 | 1.03e6 |
| CG10062 | DRSC24932 | -0.406 | 7.71e5 | 8.29e5 |
| Ir7c | DRSC18007 | 2.01 (active) | 9.55e5 | 8.53e5 |
| Ir7c | DRSC39710 | 0.452 | 4.70e5 | 5.23e5 |
| snu | DRSC16589 | -1.35 | 5.71e5 | 5.62e5 |
| snu | DRSC39720 | 1.78 (active) | 5.95e5 | 5.77e5 |
| mthl2 | DRSC10287 | 0.803 | 1.10e6 | 9.02e5 |
| mthl2 | DRSC27003 | -0.349 | 1.14e6 | 1.29e6 |
| ppk30 | DRSC15302 | 0.765 | 6.67e5 | 6.82e5 |
| ppk30 | DRSC39594 | 1.23 | 4.75e5 | 6.25e5 |
| CG11099 | DRSC06034 | 1.85 (active) | 7.75e5 | 8.00e5 |
| CG32246 | DRSC08115 | -0.152 | 6.91e5 | 7.63e5 |
| CG32246 | DRSC24361 | 0.748 | 9.18e5 | 9.08e5 |
| CG30047 | DRSC05340 | 0.484 | 7.06e5 | 8.90e5 |
| GAA1 | DRSC18267 | 0.602 | 7.99e5 | 7.37e5 |
| GAA1 | DRSC39778 | -1.64 (active) | 4.21e5 | 3.03e5 |
| Nup107 | DRSC01999 | -1.13 | 6.02e5 | 6.09e5 |
| Gr2a | DRSC18603 | 1.3 | 8.33e5 | 7.78e5 |
| Gr2a | DRSC39727 | 0.482 | 4.77e5 | 5.20e5 |
| Stim | DRSC20158 | -0.0412 | 6.97e5 | 7.05e5 |
| Stim | DRSC39682 | -0.955 | 3.90e5 | 4.11e5 |
| Tsp42Eo | DRSC06184 | 0.139 | 6.48e5 | 6.16e5 |
| CG7720 | DRSC16306 | 0.664 | 8.03e5 | 7.46e5 |
| CG7720 | DRSC16307 | -0.923 | 6.12e5 | 6.44e5 |
| Shal | DRSC09625 | -0.42 | 7.14e5 | 6.70e5 |
| Shal | DRSC11283 | -0.175 | 8.82e5 | 8.64e5 |
| Proc-R | DRSC18410 | -1.27 | 5.38e5 | 8.41e5 |
| Proc-R | DRSC39733 | 0.193 | 5.36e5 | 4.19e5 |
| vir | DRSC04377 | 0.00715 | 7.61e5 | 6.94e5 |
| vir | DRSC26525 | -0.609 | 8.38e5 | 9.96e5 |
| CG11438 | DRSC11660 | -0.0864 | 9.12e5 | 8.58e5 |
| CG11438 | DRSC36909 | 0.893 | 5.92e5 | 7.20e5 |
| CG8785 | DRSC07266 | 0.0445 | 7.15e5 | 7.57e5 |
| Cad96Ca | DRSC14220 | 0.0201 | 3.19e5 | 7.15e5 |
| Cad96Ca | DRSC16693 | -0.256 | 7.10e5 | 7.19e5 |
| Cad96Ca | DRSC36738 | -0.6 | 5.07e5 | 5.51e5 |
| CG18281 | DRSC11742 | 0.88 | 9.04e5 | 7.44e5 |
| CG18281 | DRSC39875 | 0.022 | 5.64e5 | 6.10e5 |
| Or46a + asRNA:CR43467 | DRSC07490 | -0.621 | 5.38e5 | 5.88e5 |
| Or46a + asRNA:CR43467 | DRSC21590 | 0.494 | 6.22e5 | 6.21e5 |
| Or46a + asRNA:CR43467 | DRSC29654 | -0.192 | 8.47e5 | 7.57e5 |
| Srg2 | DRSC10681 | -0.754 | 6.57e5 | 6.43e5 |
| Srg2 | DRSC24667 | 0.21 | 8.42e5 | 9.11e5 |
| SCAP | DRSC04869 | -0.658 | 5.46e5 | 5.74e5 |
| SCAP | DRSC04907 | 0.86 | 7.44e5 | 6.50e5 |
| rpk | DRSC21656 | -2.05 (active) | 3.85e5 | 4.27e5 |
| Ir56d | DRSC06590 | -0.202 | 5.96e5 | 6.06e5 |
| Ir56d | DRSC28383 | 0.639 | 9.65e5 | 8.40e5 |

A stretch of the results above, for reference:
| gene knocked down | dsRNA | ATP z-score, duplicate mean | ATP luminescence, replicate 1 (RLU) | ATP luminescence, replicate 2 (RLU) |
| --- | --- | --- | --- | --- |
| CG4576 | DRSC26364 | 0.00672 | 8.86e5 | 8.16e5 |
| CG3792 | DRSC02725 | 0.415 | 7.58e5 | 7.82e5 |
| CG5892 | DRSC15910 | 0.0424 | 2.93e5 | 7.86e5 |
| CG5892 | DRSC24710 | 0.545 | 9.71e5 | 8.64e5 |
| p24-1 | DRSC19827 | 2.33 (active) | 8.50e5 | 8.80e5 |
| p24-1 | DRSC26718 | -0.974 | 1.06e6 | 1.01e6 |
| Dop1R2 | DRSC13958 | -0.485 | 8.58e5 | 8.08e5 |
| Dop1R2 | DRSC28272 | 1.09 | 1.06e6 | 8.54e5 |
| Mrp4 | DRSC14931 | -0.0175 | 2.93e5 | 7.74e5 |
| Mrp4 | DRSC28151 | 0.857 | 8.90e5 | 1.05e6 |
| PGRP-SB2 | DRSC11092 | -0.629 | 6.90e5 | 6.57e5 |
